The supplement of paper PMC4604168 (melanoma cell lines)
This is one part of the list. Single values are uncertain, as repeats are few or missing.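 Cells were imaged in 1,536-well plates, and nuclei stained with an antibody against cleaved PARP were counted against all DNA-stained nuclei to give the apoptosis fraction. Screening doses were chosen to leave most cells alive, and resting and induced cleaved-PARP levels differ strongly between cell lines.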

Key:
Test in all cases: cleaved PARP positive nuclei fraction relative to DMSO control; melanoma cells; higher = more apoptosis
Settings in all cases: library dose: low library concentration; 72 h
COLO792 = test system: COLO792
COLO800 = test system: COLO800
COLO829 = test system: COLO829
G361 = test system: G361
IPC-298 = test system: IPC-298
IST-MEL1 = test system: IST-MEL1
LB2518-MEL = test system: LB2518-MEL
LOXIMVI = test system: LOXIMVI
MZ2-MEL = test system: MZ2-MEL
MeWo = test system: MeWo
RPMI7951 = test system: RPMI7951
RVH-421 = test system: RVH-421
SkMel28 = test system: SkMel28
SkMel2 = test system: SkMel2
SkMel30 = test system: SkMel30
SkMel5 = test system: SkMel5
UACC257 = test system: UACC257
UACC62 = test system: UACC62

| Compound | cleaved PARP positive nuclei fraction (COLO792) | cleaved PARP positive nuclei fraction (COLO800) | cleaved PARP positive nuclei fraction (COLO829) | cleaved PARP positive nuclei fraction (G361) | cleaved PARP positive nuclei fraction (IPC-298) | cleaved PARP positive nuclei fraction (IST-MEL1) | cleaved PARP positive nuclei fraction (LB2518-MEL) | cleaved PARP positive nuclei fraction (LOXIMVI) | cleaved PARP positive nuclei fraction (MZ2-MEL) | cleaved PARP positive nuclei fraction (MeWo) | cleaved PARP positive nuclei fraction (RPMI7951) | cleaved PARP positive nuclei fraction (RVH-421) | cleaved PARP positive nuclei fraction (SkMel28) | cleaved PARP positive nuclei fraction (SkMel2) | cleaved PARP positive nuclei fraction (SkMel30) | cleaved PARP positive nuclei fraction (SkMel5) | cleaved PARP positive nuclei fraction (UACC257) | cleaved PARP positive nuclei fraction (UACC62) |
| --- | --- | --- | --- | --- | --- | --- | --- | --- | --- | --- | --- | --- | --- | --- | --- | --- | --- | --- |
| Cc1cn(-c2cc(NC(=O)c3ccc(C)c(Nc4nccc(-c5cccnc5)n4)c3)cc(C(F)(F)F)c2)cn1 [nilotinib] + COc1cc2ncnc(Nc3ccc(Oc4ccccc4)cc3)c2cc1OC [SrcI1] (first compound 0.2 µM, partner dose 2 µM) | 130% | 78.8% | 57% | 175% | 37.8% | 143% | 48.4% | 80.4% | 107% | 167% | 66.9% | 80.7% | 111% | 51.3% | 54.7% | 67.4% | 124% | 110% |
| COc1cc([C@@H]2c3cc4c(cc3[C@@H](O[C@@H]3O[C@@H]5CO[C@@H](C)O[C@H]5[C@H](O)[C@H]3O)[C@H]3COC(=O)[C@H]23)OCO4)cc(OC)c1O [etoposide] + O=C1NC(=O)/C(=C/c2ccc(-c3ccc(F)cc3O)o2)S1 [AS252424] (first compound 0.02 µM, partner dose 1 µM) | 60.5% | 31.9% | 59.3% | 53.5% | 29.8% | 40.3% | 149% | 90.1% | 75.2% | 141% | 117% | 113% | 87.7% | 71.5% | 82.9% | 75.3% | 179% | 75.9% |
| O=c1[nH]nc(Sc2ncc([N+](=O)[O-])s2)n1-c1ccc2c(c1)OCCO2 + COc1ccc(COc2ccc(Cc3cnc(N)nc3N)cc2OC)cc1 [GW2580] (first compound 0.2 µM, partner dose 1 µM) | 89.1% | 175% | 112% | 146% | 58.6% | 128% | 66.5% | 137% | 80.7% | 76.2% | 51.9% | 85.4% | 46% | 73.5% | 170% | 80% | 126% | 54.8% |
| N#CC[C@H](C1CCCC1)n1cc(-c2ncnc3[nH]ccc23)cn1 [ruxolitinib] + COc1cc(N2CCC(N3CCN(C)CC3)CC2)ccc1Nc1ncc(Cl)c(Nc2ccccc2S(=O)(=O)C(C)C)n1 [NVP-TAE684] (first compound 1 µM, partner dose 0.08 µM) | 148% | 35.7% | 70.1% | 184% | 51.3% | 203% | 60.4% | 62.6% | 77.5% | 115% | 141% | 262% | 108% | 78.6% | 194% | 42.4% | 335% | 118% |
| CC[C@]1(O)C[C@H]2CN(CCc3c([nH]c4ccccc34)[C@@](C(=O)OC)(c3cc4c(cc3OC)N(C=O)[C@H]3[C@@](O)(C(=O)OC)[C@H](OC(C)=O)[C@]5(CC)C=CCN6CC[C@]43[C@@H]65)C2)C1 [vincristine] + CC(C)CCN1c2nc(Nc3cc(F)c(O)c(F)c3)ncc2N(C)C(=O)C1C [BID1870] (first compound 0.0001 µM, partner dose 0.2 µM) | 125% | 133% | 164% | 85% | 33% | 166% | 77.3% | 426% | 155% | 632% | 143% | 44.3% | 93.9% | 94.8% | 77.4% | 137% | 10.8% | 1320% |
| CCCCCCCCCCCCCCCCCCOP(=O)([O-])OC1CC[N+](C)(C)CC1 [Perifosine] + O=C(Nc1ccccc1)c1cc([N+](=O)[O-])ccc1Cl [GW9662] (first compound 0.4 µM, partner dose 2 µM) | 82.3% | 128% | 121% | 116% | 77.7% | 58.3% | 70.9% | 85% | 141% | 82.2% | 97.6% | 47.2% | 155% | 28.9% | 91.7% | 78.6% | 110% | 186% |
| O=c1[nH]nc(Sc2ncc([N+](=O)[O-])s2)n1-c1ccc2c(c1)OCCO2 + N#Cc1c(O)c2c(-c3ccc(-c4ccccc4O)cc3)csc2[nH]c1=O [A769662] (first compound 0.2 µM, partner dose 2 µM) | 76.6% | 68.3% | 48.9% | 54.2% | 43.2% | 56% | 70.4% | 183% | 22.3% | 22% | 187% | 82.3% | 63.2% | 62.1% | 146% | 128% | 63.7% | 50.1% |
| CCCCCCCCCCCCCCCCCCOP(=O)([O-])OC1CC[N+](C)(C)CC1 [Perifosine] + COc1cc2ncnc(Nc3ccc(Oc4ccccc4)cc3)c2cc1OC [SrcI1] (first compound 0.4 µM, partner dose 2 µM) | 83.2% | 50.6% | 48.5% | 109% | 98.1% | 133% | 61% | 116% | 92.3% | 67.1% | 152% | 132% | 179% | 54.9% | 85.9% | 247% | 40% | 140% |
| O=C(/C=C/c1cccnc1)NCCCCC1CCN(C(=O)c2ccccc2)CC1 + COc1ccc(-c2ccc3c(N4CCOCC4)nc(N4C[C@@H](C)O[C@@H](C)C4)nc3n2)cc1CO [KU0063794] (first compound 0.01 µM, partner dose 0.02 µM) | 216% | 263% | 184% | 2080% | 223% | 150% | 79.8% | 88.2% | 666% | 51.6% | 27.1% | 239% | 82.1% | 300% | 24.6% | 75.5% | 250% | 40.2% |
| Cc1ccc(Nc2nccc(N(C)c3ccc4c(C)n(C)nc4c3)n2)cc1S(N)(=O)=O [Pazopanib] + COC(=O)c1sccc1S(=O)(=O)Nc1ccc(Nc2ccccc2)cc1OC [GSK0660] (first compound 0.4 µM, partner dose 1 µM) | 46.3% | 63.2% | 134% | 172% | 124% | 127% | 71.3% | 108% | 92.3% | 86.9% | 39.5% | 59.3% | 143% | 81.5% | 504% | 37.8% | 128% | 63.7% |
| CC[C@]1(O)C[C@H]2CN(CCc3c([nH]c4ccccc34)[C@@](C(=O)OC)(c3cc4c(cc3OC)N(C=O)[C@H]3[C@@](O)(C(=O)OC)[C@H](OC(C)=O)[C@]5(CC)C=CCN6CC[C@]43[C@@H]65)C2)C1 [vincristine] + Oc1nc(-c2ccc(C(F)(F)F)cc2)nc2c1CSCC2 [XAV939] (first compound 0.0001 µM, partner dose 2 µM) | 113% | 68.2% | 55.7% | 97.4% | 48.1% | 90.3% | 152% | 28.3% | 133% | 99.8% | 122% | 49% | 352% | 102% | 156% | 180% | 233% | 227% |
| N#CC[C@H](C1CCCC1)n1cc(-c2ncnc3[nH]ccc23)cn1 [ruxolitinib] + Cn1cc(/C=C2\C(=O)Nc3cccnc32)c2ccccc21 [GW441756] (first compound 1 µM, partner dose 0.4 µM) | 92.8% | 53.3% | 108% | 174% | 178% | 149% | 55.6% | 35.6% | 111% | 127% | 83.4% | 117% | 91.8% | 83.7% | 111% | 81.1% | 178% | 64% |
| CCCCCCCCCCCCCCCCCCOP(=O)([O-])OC1CC[N+](C)(C)CC1 [Perifosine] + O=S(=O)(c1ccccc1)N(CC(F)(F)F)c1ccc(C(O)(C(F)(F)F)C(F)(F)F)cc1 [T0901317] (first compound 0.4 µM, partner dose 1.4 µM) | 56.6% | 56% | 169% | 123% | 32.6% | 117% | 158% | 91.7% | 98.7% | 89.1% | 118% | 134% | 47.7% | 166% | 106% | 84% | 207% | 126% |
| Cc1ccc(Nc2nccc(N(C)c3ccc4c(C)n(C)nc4c3)n2)cc1S(N)(=O)=O [Pazopanib] + O=C(Nc1ccccc1)c1cc([N+](=O)[O-])ccc1Cl [GW9662] (first compound 0.4 µM, partner dose 2 µM) | 58.1% | 51.3% | 137% | 89.3% | 59.3% | 67.4% | 66.8% | 165% | 93.8% | 86.1% | 141% | 86.9% | 147% | 82% | 93.3% | 77.4% | 183% | 105% |
| O=c1[nH]nc(Sc2ncc([N+](=O)[O-])s2)n1-c1ccc2c(c1)OCCO2 + CCN(CC)CCCCNc1ncc2cc(-c3cc(OC)cc(OC)c3)c(NC(=O)NC(C)(C)C)nc2n1 [PD173074] (first compound 0.2 µM, partner dose 0.1 µM) | 119% | 146% | 72.7% | 102% | 87% | 92.6% | 32.3% | 202% | 206% | 80.4% | 50% | 99.8% | 123% | 106% | 41.6% | 239% | 127% | 89.1% |
| O=C(/C=C/c1cccnc1)NCCCCC1CCN(C(=O)c2ccccc2)CC1 + O=C(Nc1ccccc1)c1cc([N+](=O)[O-])ccc1Cl [GW9662] (first compound 0.01 µM, partner dose 2 µM) | 463% | 400% | 262% | 3700% | 264% | 79.8% | 217% | 177% | 813% | 111% | 144% | 149% | 96.5% | 1180% | 79.9% | 82.5% | 25.6% | 61% |
| Cc1cn(-c2cc(NC(=O)c3ccc(C)c(Nc4nccc(-c5cccnc5)n4)c3)cc(C(F)(F)F)c2)cn1 [nilotinib] + c1cc(-c2cnn3cc(-c4ccc(OCCN5CCCCC5)cc4)cnc23)ccn1 [Dorsomorphin] (first compound 0.2 µM, partner dose 0.4 µM) | 47.8% | 87.4% | 198% | 34.4% | 46.9% | 28.6% | 64% | 198% | 37% | 73.2% | 150% | 64.9% | 110% | 59.1% | 39.2% | 177% | 160% | 66.6% |

Reprinted from the listing (two entries):

| Compound | cleaved PARP positive nuclei fraction (COLO792) | cleaved PARP positive nuclei fraction (COLO800) | cleaved PARP positive nuclei fraction (COLO829) | cleaved PARP positive nuclei fraction (G361) | cleaved PARP positive nuclei fraction (IPC-298) | cleaved PARP positive nuclei fraction (IST-MEL1) | cleaved PARP positive nuclei fraction (LB2518-MEL) | cleaved PARP positive nuclei fraction (LOXIMVI) | cleaved PARP positive nuclei fraction (MZ2-MEL) | cleaved PARP positive nuclei fraction (MeWo) | cleaved PARP positive nuclei fraction (RPMI7951) | cleaved PARP positive nuclei fraction (RVH-421) | cleaved PARP positive nuclei fraction (SkMel28) | cleaved PARP positive nuclei fraction (SkMel2) | cleaved PARP positive nuclei fraction (SkMel30) | cleaved PARP positive nuclei fraction (SkMel5) | cleaved PARP positive nuclei fraction (UACC257) | cleaved PARP positive nuclei fraction (UACC62) |
| --- | --- | --- | --- | --- | --- | --- | --- | --- | --- | --- | --- | --- | --- | --- | --- | --- | --- | --- |
| CCCCCCCCCCCCCCCCCCOP(=O)([O-])OC1CC[N+](C)(C)CC1 [Perifosine] + COc1cc2ncnc(Nc3ccc(Oc4ccccc4)cc3)c2cc1OC [SrcI1] (first compound 0.4 µM, partner dose 2 µM) | 83.2% | 50.6% | 48.5% | 109% | 98.1% | 133% | 61% | 116% | 92.3% | 67.1% | 152% | 132% | 179% | 54.9% | 85.9% | 247% | 40% | 140% |
| O=C(/C=C/c1cccnc1)NCCCCC1CCN(C(=O)c2ccccc2)CC1 + COc1ccc(-c2ccc3c(N4CCOCC4)nc(N4C[C@@H](C)O[C@@H](C)C4)nc3n2)cc1CO [KU0063794] (first compound 0.01 µM, partner dose 0.02 µM) | 216% | 263% | 184% | 2080% | 223% | 150% | 79.8% | 88.2% | 666% | 51.6% | 27.1% | 239% | 82.1% | 300% | 24.6% | 75.5% | 250% | 40.2% |
